This is a selection; strong and weak results do not stand in their true shares. At the low end of the ranking the order means little.
The sequences below were run against T1, ETV3 (UniProt P41162-2) (assay: DAPPL (digital affinity profiling via proximity ligation, sequencing)). Conditions: 10 mM Tris-HCl pH 7.5, 50 mM NaCl, 1 mM DTT, 4% glycerol, room temperature, 30 min; GST-TFs on glutathione beads, 16-mer random dsDNA library, 0.1% …; high values mean tight binding; double strand, one strand shown; scale: fold enrichment (6-mer frequency, TF over GST control).
T1 sequence: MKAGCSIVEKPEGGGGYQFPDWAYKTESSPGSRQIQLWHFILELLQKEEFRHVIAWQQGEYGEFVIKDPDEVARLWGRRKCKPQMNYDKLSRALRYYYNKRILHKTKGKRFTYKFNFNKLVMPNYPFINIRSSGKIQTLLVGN

Sequence	binding signal
CTTCGA	1.16
GTCTAA	0.963
TATTTA	1.41
AATCCG	1.66
AGCCAC	0.943
TATTAC	1.24
CTTTAT	1.19
GCCGAA	0.97
CTCTAT	1.08
TGTACA	1.17
TGGCTC	1.44
CCTTGA	1.19
CATTAT	1.15
CTCTCT	1.68
AGATGC	1.06
TTTCTA	1.38
TCAACT	1.31
ATTTTC	1.42
GCCCTA	1.18
TAGGGT	0.955

In another format: entries from further up.
Sequence | binding signal
CATTAT | 1.15
CTCTCT | 1.68

Following part

Sequence	binding signal
GCTCTT	1.48
ATAACA	1.2
TGGGCT	1.41
TCTTTT	1.5
GGATGC	1.3
CTCACA	1.3
TTCTAG	1.19
GGTTCC	1.71
ACTCTG	1.27
CTTGGC	1.12
TACATA	1.21
ATTTAA	1.13
CTCACG	1.23
CGTATC	1.28
ACTGGT	1.06
AATCTC	1.2
GTTTTT	1.34
ACCCTG	1.13
TAAATT	1.21

From PMC7862700
